According to patent publication KR20230175116A:
These are yes or no findings as the source states them, for the method shown. Some results given as binding are weak or reduced against the parent protein; the word gives no strength. Tags and fused reporters may be left off the sequences shown.

Molecular target: T1, DR3-His tag (human) (UniProt Q93038)
T1 sequence (looked up): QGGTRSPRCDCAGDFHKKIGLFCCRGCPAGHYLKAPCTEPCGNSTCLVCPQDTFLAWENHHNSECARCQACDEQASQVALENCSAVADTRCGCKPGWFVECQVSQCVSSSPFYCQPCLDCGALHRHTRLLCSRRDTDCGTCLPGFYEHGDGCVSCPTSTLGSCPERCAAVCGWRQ
Assay: SPR, Biacore T100, DR3-His tag immobilised on CM5 chip; TL1A as the reference

B1: TL1A (ligand, UniProt O95150 72-251, looked up)
chain: LKGQEFAPSHQQVYAPLRADGDKPRAHLTVVRQTPTQHFKNQFPALHWEHELGLAFTKNRMNYTNKFLLIPESGDYFIYSQVTFRGMTSECSEIRQAGRPNKPDSITVVITKVTDSYPEPTQLLMGTKSVCEVGSNWFQPIYLGAMFSLQEGDKLMVNVSDISLVDYTKEDKTFFGAFLL
- binding: binds
